38 compounds from PubChem BioAssay AID493014 (National Center for Advancing Translational Sciences (NCATS), 2011) can be followed below.

The structures appear in SMILES notation. The list shows a part of the results. The main result of the screen is listed elsewhere. These columns were measured beside it and carry no call. Compounds called inactive in the main read-out are mostly missing here. The note in brackets gives the kind of curve behind each potency; many fits are weak.

One may read the AC50 as the midpoint of the concentration-response curve, whichever way the signal moves.

This assay can be described thus: qHTS Assay to Find Inhibitors of Chronic Active B-Cell Receptor Signaling. As to conditions: ABC-DLBCL IkBa-CBG/CBR reporter, luminescence ratio (green luciferase fused to IkBa over red control in TMD8 lymphoma cells), 4 h. In short, it runs like this:
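TMD8 ABC-DLBCL cells carrying doxycycline-inducible green luciferase fused to IkappaBalpha plus unfused red luciferase were exposed to compounds (up to 46 uM) for 4 hrs at 37C. Activity came from the overlap-corrected green/red luminescence ratio.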
(In general: Quantitative high-throughput screening tests each substance at several concentrations.)

[1] abbreviates: measured here: CBR red luminescence, cell number.
Setting [2] is: measured here: IkBa-CBG green luminescence.

In the case of `COc1ccccc1N(CC(=O)Nc1ccccc1C(=O)NC(C)C)S(C)(=O)=O`, the AC50 under setting [1] was 4.47 µM [rising, full curve]. Still for that read-out and setting: under `Cn1cccc1C(=O)OCC(=O)NCCc1ccccc1` stands 32.6 µM [rising, single point].

Take `Cc1ccc(C)c(NC(=S)N=Nc2c(O)n(C)c3ccc(S(=O)(=O)N4CCOCC4)cc23)c1`: the AC50 under setting [1] was 20.6 µM [falling, single point] and the AC50 under setting [2] was 4.61 µM [falling, full curve]. Consider `Cc1ccc(C(=O)N2CCc3cc(CNC(=O)CCc4ccccc4)ccc32)cc1`, for which the AC50 under setting [1] was 35.5 µM [falling, single point].

In the case of `O=C(c1ccccc1)N1CCN(C(=S)NCCc2ccccc2)CC1`, the AC50 under setting [1] was 29.1 µM [rising, single point].

For `O=C1c2ccccc2C(=O)N1CC1c2ccccc2CCN1C(=O)C1CCCCC1` (stereo not drawn), the AC50 under setting [1] was 32.6 µM [falling, single point]. Still for that read-out and setting: the same measure for `COc1ccc(C(=O)Nc2ccc(Cl)cn2)cc1Cl`: 14.1 µM [falling, partial curve, poor fit]. Same read-out and setting: the same measure for `Cc1ccccc1NC(=O)CCN1CCc2ccccc2C1`: 7.94 µM [falling, partial curve, poor fit]; for `CC(O)Cc1cn([C@@H](CCCCNC(=O)OC(C)(C)C)C(=O)N2CCN(C(=O)OC(C)(C)C)CC2)nn1` (stereo partly drawn): 35.5 µM [rising, single point]. As to `Cc1c(/C=N\NC(=O)c2cc3ccccc3o2)c2ccccc2n1C`, the AC50 reads like this: under setting [1], 31.6 µM [rising, partial curve, poor fit]; under setting [2], 12.6 µM [falling, partial curve, poor fit]. Consider `COc1ccc2c(c1)C(=O)N1[C@H]3c4cc(C)ccc4OC[C@@H]3[C@H](c3ccccc3)[C@]1(C)C(=O)N2`, for which the AC50 runs as follows: under setting [1], 5.8 µM [falling, full curve]; under setting [2], 5.17 µM [rising, full curve, poor fit]. Turning to `Nc1nc(CSc2ccc(Cl)cc2)nc(N2CCCCC2)n1`, the AC50 under setting [1] is 14.1 µM [rising, partial curve, poor fit].

`CCOC(=O)CSc1nnc(-c2ccccc2)o1`: the AC50 under setting [1] was 13 µM [rising, partial curve] and the AC50 under setting [2] is 11.6 µM [rising, partial curve, poor fit].

On to `O=C(Nc1ccccc1)Nc1nc(-c2ccccc2)cs1`, for which the AC50 under setting [1] is 10 µM [falling, partial curve]. As to `O=C(Nc1cccc(-c2cn3c(n2)SCC3)c1)c1ccc(Br)o1`, under setting [1], the AC50 is 22.4 µM [falling, single point]. On to `COc1cc(OC)cc(C(=O)NC(C(=O)Nc2ccc3nc(C)sc3c2)C(C)C)c1` (stereo not drawn), for which the AC50 under setting [1] was 9.2 µM [rising, partial curve, poor fit]. The same measure, in the same setting: under `Cc1ccc(NC(=O)Cn2nc(C(=O)O)c3ccccc3c2=O)c([N+](=O)[O-])c1` stands 0.112 µM [rising, full curve, poor fit]; under `Cc1cc(C)c(C(N)=O)c(Nc2cccc(Cl)c2)n1`, 16.4 µM [rising, partial curve, poor fit]. The same measure, in the same setting: the same measure for `COc1ccccc1-n1c(CNC(=O)COc2ccccc2)n[nH]c1=S`: 1.64 µM [falling, full curve]. For `COc1cccc(-c2noc(CCCC(=O)N3CCOCC3)n2)c1`, the AC50 under setting [1] is 0.631 µM [rising, full curve, poor fit] and the AC50 under setting [2] is 3.16 µM [rising, partial curve, poor fit]. Take `CCn1c(O)c(N=Nc2ccc3ccccc3n2)c2ccccc21`: under setting [1], the AC50 was 0.355 µM [falling, full curve, poor fit].

As for `Cc1cc(C)c2c(=O)[nH]c(SCC(=O)Nc3ccc(N(C)C)cc3)nc2n1`, the AC50 under setting [1] is 0.501 µM [falling, full curve, poor fit]. Same read-out and setting: under `Cc1ccccc1OCc1nc2ccccc2[nH]1` stands 15.8 µM [falling, partial curve]. Still for that read-out and setting: under `CCc1cc2c(SCC(=O)N(C)C3CCS(=O)(=O)C3)ncnc2s1` (stereo not drawn) stands 25.1 µM [rising, single point]; under `COc1ccccc1/C=C/C(=O)NCC(=O)N=Nc1c(O)[nH]c2ccccc12`, 8.91 µM [falling, partial curve, poor fit]; under `COC(=O)C1CN(C(=O)COc2ccc(C)c(C)c2)c2ccccc2O1` (stereo not drawn), 35.5 µM [falling, single point]. Consider `CC(C)CCSc1nnc(N)s1`, for which, under setting [1], the AC50 is 5.01 µM [rising, partial curve, poor fit]. On to `Cc1cccc([C@@H]2[C@@H]3C(=O)N(Cc4ccccc4)C(=O)[C@@H]3[C@]3(C)C(=O)N(c4cccc(F)c4)C(=O)N23)c1`, for which, under setting [1], the AC50 was 18.4 µM [falling, partial curve]. The same measure, in the same setting: the same measure for `C=CCNC(=O)c1onc(CSc2ccc(Cl)cc2)c1C(=O)NCC=C`: 12.6 µM [falling, single point].

As for `C=CC[n+]1c(C)csc1Nc1ccc(C)cc1`, the AC50 under setting [1] is 12.6 µM [rising, partial curve, poor fit]. Same read-out and setting: the same measure for `COc1ccc(-n2c(=O)c3c4c(sc3n(CC(=O)NC3CCCC3)c2=O)CCCC4)c(OC)c1`: 12.6 µM [falling, partial curve, poor fit]; for `CCOc1cccc2cc(C(C)=O)oc12`: 0.708 µM [falling, full curve, poor fit]; for `C=CCSc1nc2ccccc2n2cnnc12`: 35.5 µM [falling, single point]. Same read-out and setting: under `CCC(C)c1ccc(O)c(NC(=O)c2ncn[nH]2)c1` (stereo not drawn) stands 0.58 µM [rising, full curve, poor fit]; under `O=[N+]([O-])c1cc(/C=N/N2CCOCC2)cs1`, 35.5 µM [rising, single point]; under `COc1ccc(/C(C)=N/NC(=O)c2nc(C)cc(C)n2)cc1`, 1.64 µM [rising, partial curve, poor fit].

Regarding `COc1ccccc1Cn1c(SCC(=O)C(C)(C)C)nc2ccccc2c1=O`, under setting [1], the AC50 is 0.112 µM [rising, full curve, poor fit]. `O=c1cc(CN2CCN(S(=O)(=O)c3ccccc3[N+](=O)[O-])CC2)nc2sccn12`: under setting [1], the AC50 was 11.2 µM [rising, partial curve, poor fit].
